# Source: the supplement of paper PMC3334620
# In all, about 33,000 sequences were measured (“E-score (-0.5 to 0.5)”: median about -0.0034, highest 2% from about 0.25 on). The list shows a part of the results.
# Target: T1, Yap3 (UniProt P38749)
# T1 sequence: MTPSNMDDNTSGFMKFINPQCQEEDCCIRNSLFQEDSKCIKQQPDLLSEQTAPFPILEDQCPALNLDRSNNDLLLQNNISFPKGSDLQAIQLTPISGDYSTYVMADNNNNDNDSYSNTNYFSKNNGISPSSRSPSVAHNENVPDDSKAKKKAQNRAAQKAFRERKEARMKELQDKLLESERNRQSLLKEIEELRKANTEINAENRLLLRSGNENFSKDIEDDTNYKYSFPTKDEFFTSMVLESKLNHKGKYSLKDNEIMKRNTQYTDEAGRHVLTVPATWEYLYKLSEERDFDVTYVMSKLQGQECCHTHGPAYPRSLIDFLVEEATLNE
# Assay: PBM E-score (8-mer binding enrichment) (E-score (-0.5 to 0.5)); higher = stronger / more preferred TF binding
# Conditions: protein concentration: 100 nM; construct: GST-full length
# How it was run: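 E-scores (a modified Wilcoxon-Mann-Whitney statistic) were assigned by the Universal PBM Analysis Suite to every ungapped eight-base word pooled with its reverse complement. The input came from universal all-10-mer Agilent arrays made double-stranded by primer extension and probed with GST-tagged yeast transcription factors at about 100-200 nM. Fluorescent anti-GST detected bound protein, and masliner normalised the scans.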
row,Sequence,PBM E-score
1,ACATGCGG,-0.00632
2,AGTGGAGG,-0.0981
3,GCTATGCA,-0.196
4,CTAGAGCA,-0.126
5,ATCTACTC,0.0794
6,ACGCCGTG,-0.112
7,ACTGTAAT,0.201
8,GTACAGGA,0.0424
9,ATTCTCAC,0.141
10,CGGTTGAA,0.184
11,AGAGACGC,0.0051
12,ATGTGACA,0.0927
13,CGTAGGTA,-0.111
14,CCCAATCA,0.0162
15,GCCTTGTA,-0.0764
16,CTATCGCA,-0.036
17,CTGTGCTA,-0.186
18,GAGCCACA,-0.104
19,CGCCAAAG,-0.11
20,ATAGATTG,0.119
21,AAACTCAC,-0.0485
22,ACGACTGC,-0.0752
23,AGATCCAA,-0.13
24,CGAATACC,0.00264
25,AGAACTAG,-0.117

row,Sequence,PBM E-score
1,TCGCGCGA,0.138
2,TAACGTTA,0.19
3,ATTGATCC,0.0152
4,AGGCCGGG,-0.308
5,AGATCTCC,-0.0529
6,CGCAGAAG,-0.0447
7,ATACCGGA,0.0214
8,GGGTCGAA,-0.277
9,CAAGTGCG,-0.0461
10,ATGTGCCG,-0.121
11,GTGGCAGA,-0.173
12,ATAAGAGG,0.112
13,ACAAGAAG,0.143
14,ACCTGTAG,-0.0988
15,CATCCCGG,-0.147
16,CGAAATTA,0.181
17,GAACATGA,0.139
18,CCGCTTAC,0.0416
19,AACCCTGA,0.146
20,TACAAACA,0.206
21,TTGCCAAA,-0.0116
22,CCCTCGCC,-0.179
23,CATGCCTA,-0.0966
24,ATCGATTG,0.177
25,AACGCCAG,0.0892

row,Sequence,PBM E-score
1,GCAAGGGC,-0.142
2,CTTATGCC,0.0004
3,CACGCGCG,-0.0466
4,CCGGCACC,-0.205
5,GCGTAGGA,-0.0348
6,CTGAACAC,0.205
7,AGCCATCC,-0.193
8,AGGCCGTC,-0.263
9,GAGTACCC,-0.135
10,CGCCCAGC,-0.234
11,AGCTGGGA,-0.0381
12,CACAGCCA,-0.123
13,ATCCGAGA,0.22
14,CACGACCA,-0.0289
15,CTACCTGC,-0.1
16,AGGTATAG,0.0398
17,AGTAGCGG,0.0175
18,GAATGCCA,-0.0609
19,CGAAACGC,-0.124
20,CCGATCTA,-0.115
21,ACAGTGGT,-0.0202
22,GGCGGGGA,0.233
23,ACAGACAG,0.0669
24,ACCAGTGG,-0.129
25,ACTGTCGA,-0.0539

# Pulled one by one from the list above (7):
row,Sequence,PBM E-score
22,GGCGGGGA,0.233
19,CGAAACGC,-0.124
11,AGCTGGGA,-0.0381
24,ACCAGTGG,-0.129
1,GCAAGGGC,-0.142
7,AGCCATCC,-0.193
23,ACAGACAG,0.0669

# Single values from the list:
# For PBM E-score, CTACCTGC is entered as -0.1
# For PBM E-score, ATCCGAGA is entered as 0.22
# For PBM E-score, CCGATCTA is entered as -0.115

# Remaining list, next part:

row,Sequence,PBM E-score
1,GACGTCGA,0.0993
2,GGCCTAAA,-0.112
3,ATCCTTTC,0.0424
4,AACGGCCA,-0.0772
5,CACTGGTC,-0.137
6,AAAACTTT,0.0631
7,AAATGACC,0.0722
8,GCAACGCC,-0.247
9,ATATTAAG,0.0834
10,AGTTGCTC,-0.104
11,ACACGCGT,0.112
12,CGGTTACC,-0.159
13,GCGTCAAA,0.0706
14,GAAGGCAC,-0.128
15,GGCAGCCC,-0.322
16,CCATGTCA,-0.0941
17,CTTAGTGC,-0.0295
18,GGGGACAC,-0.315
19,CCTTGGAC,-0.216
20,AGCAAGCG,-0.0215
21,AGCCGGAG,0.00421
22,AGGATCGA,-0.09
23,ACAGGCAT,-0.0533
24,GTATACAC,-0.0686
25,CCTGAACC,-0.0771

row,Sequence,PBM E-score
1,AAGCCTAC,-0.0223
2,AGGAGGAT,-0.0704
3,GGGGGTGA,-0.178
4,AACCCACT,0.176
5,CACCGGGC,-0.34
6,CTTGGAAA,0.0251
7,GTTAAAAA,0.225
8,ATCAATTC,-0.0493
9,CCCGCTTC,-0.117
10,CCAGCGAG,-0.0495
11,ACCAGCCT,-0.157
12,GCTTGTCC,-0.103
13,GTTGCGCA,-0.0198
14,ATTCCGTC,0.019
15,GTGTCCGA,-0.0129
16,AAGACCTT,0.0295
17,TGTCCAAA,0.0292
18,CGAAATCC,0.108
19,TGGAGTAA,0.205
20,CCCAGGGA,-0.402
21,ATATTTTA,0.273
22,TCTTGCAA,0.011
23,CGAGTATA,0.209
24,ACATATGC,-0.195
25,CGCTAACA,0.118

row,Sequence,PBM E-score
1,AGCACTGA,-0.00441
2,ACGTTATC,0.0137
3,AGACCGAC,0.0381
4,GCCACCGA,-0.255
5,ATCCTGAC,0.121
6,AACAGCCT,-0.0849
7,CCATGTCG,-0.0289
8,AGCTTCCG,-0.102
9,CGAATTAA,0.0999
10,AAACGTGC,-0.0428
11,ATGGCGTC,-0.0542
12,AAGTATAT,0.135
13,ACTTGCGA,0.0575
14,ACAAGCCC,-0.236
15,CCGGACCA,-0.247
16,ACCCCATC,-0.157
17,CATGGACC,-0.093
18,ACAGTTGA,0.113
19,ACTGCGCA,0.0469
20,AATTACTG,0.218
21,AGGTAAAG,0.224
22,ATCAGTAG,0.0393
23,ATCCGACC,-0.021
24,AGTTTATA,0.205
25,CCCATAAC,0.0193

row,Sequence,PBM E-score
1,AGGTCTGC,-0.226
2,AACGTATC,-0.00988
3,CCGGTACC,-0.0802
4,ATAGAAAC,0.174
5,AACTGGAG,-0.188
6,GTTTAAAC,0.126
7,ACAGGACG,-0.0578
8,GTAAGGAC,-0.0757
9,AAGAGCTT,-0.0936
10,GTAACGGA,0.0825
11,ACAGGAGC,0.151
12,AACCTCTA,0.0344
13,CTGTTTTC,-0.0508
14,ATAATGAC,0.0171
15,AGGTTGAG,-0.294
16,TGTCCGAA,0.161
17,AACTTCGC,-0.0832
18,CTGCGCCA,-0.0367
19,CTTACTCA,0.164
20,AGTAGAGC,-0.0281
21,AGCTCAAT,0.0583
22,GTGCGGTA,-0.0885
